Experimental data from the supplement of paper PMC11264405.

What was measured:
Test in all cases: minimum inhibitory concentration
[1] = compound: C[C@@H](O)[C@H]1C(=O)N2C(C(=O)O)=C(S[C@@H]3CN[C@H](C(=O)N(C)C)C3)[C@H](C)[C@H]12 [meropenem]
[2] = compound: CN[C@H](CC(C)C)C(=O)N[C@H]1C(=O)N[C@@H](CC(N)=O)C(=O)N[C@H]2C(=O)N[C@H]3C(=O)N[C@H](C(=O)N[C@H](C(=O)O)c4cc(O)cc(O)c4-c4cc3ccc4O)[C@H](O)c3ccc(c(Cl)c3)Oc3cc2cc(c3O[C@@H]2O[C@H](CO)[C@@H](O)[C@H](O)[C@H]2O[C@H]2C[C@](C)(N)[C@H](O)[C@H](C)O2)Oc2ccc(cc2Cl)[C@H]1O [vancomycin]
[3] = compound: CC(=O)NC[C@H]1CN(c2ccc(N3CCOCC3)c(F)c2)C(=O)O1 [linezolid]
[4] = compound: CO[C@H]1/C=C/O[C@@]2(C)Oc3c(C)c(O)c4c(O)c(c(/C=N/N5CCN(C)CC5)c(O)c4c3C2=O)NC(=O)/C(C)=C\C=C\[C@H](C)[C@H](O)[C@@H](C)[C@@H](O)[C@@H](C)[C@H](OC(C)=O)[C@@H]1C [rifampicin]
[5] = compound: Cc1ncc([N+](=O)[O-])n1CCO [metronidazole]
[6] = compound: C[C@@H](O)[C@H]1C(=O)N2C(C(=O)O)=C(SCCNC=N)C[C@H]12 [imipenem]
[7] = compound: CCc1c(Cl)c(O)c(Cl)c(O)c1C(=O)O[C@H]1[C@H](O)[C@H](OC)[C@H](OC/C2=C\C=C\C[C@H](O)/C(C)=C/[C@H](CC)[C@@H](O[C@@H]3OC(C)(C)[C@@H](OC(=O)C(C)C)[C@H](O)[C@@H]3O)/C(C)=C/C(C)=C/C[C@@H]([C@@H](C)O)OC2=O)O[C@@H]1C [fidaxomicin]
[8] = compound: CN(C)c1cc(NC(=O)CNC(C)(C)C)c(O)c2c1C[C@H]1C[C@H]3[C@H](N(C)C)C(O)=C(C(N)=O)C(=O)[C@@]3(O)C(O)=C1C2=O [tigecycline]
[9] = compound: CCC[C@@H]1C[C@@H](C(=O)N[C@@H]([C@H]2O[C@H](SC)[C@H](O)[C@@H](O)[C@H]2O)[C@H](C)Cl)N(C)C1 [clindamycin]

Test System	minimum inhibitory concentration [1]	minimum inhibitory concentration [2]	minimum inhibitory concentration [3]	minimum inhibitory concentration [4]	minimum inhibitory concentration [5]	minimum inhibitory concentration [6]	minimum inhibitory concentration [7]	minimum inhibitory concentration [8]	minimum inhibitory concentration [9]
Clostridioides difficile PCR ribotype 126 isolate #384 (European region: West, country: France, isolate source: Animal, ribotype: 126)	2 mg/L	1 mg/L	2 mg/L	< 1 ng/mL	< 0.125 mg/L	2 mg/L	0.03 mg/L	< 0.03 mg/L	8 mg/L
Clostridioides difficile PCR ribotype 126 isolate #385 (European region: West, country: France, isolate source: Animal, ribotype: 126)	2 mg/L	1 mg/L	2 mg/L	< 1 ng/mL	< 0.125 mg/L	2 mg/L	0.03 mg/L	< 0.03 mg/L	2 mg/L
Clostridioides difficile PCR ribotype 126 isolate #386 (European region: West, country: France, isolate source: Animal, ribotype: 126)	2 mg/L	1 mg/L	2 mg/L	< 1 ng/mL	< 0.125 mg/L	2 mg/L	0.004 mg/L	0.06 mg/L	4 mg/L
Clostridioides difficile PCR ribotype 126 isolate #387 (European region: West, country: France, isolate source: Animal, ribotype: 126)	4 mg/L	1 mg/L	2 mg/L	< 1 ng/mL	< 0.125 mg/L	2 mg/L	0.015 mg/L	< 0.03 mg/L	4 mg/L
Clostridioides difficile PCR ribotype 126 isolate #388 (European region: West, country: France, isolate source: Animal, ribotype: 126)	2 mg/L	1 mg/L	2 mg/L	< 1 ng/mL	< 0.125 mg/L	2 mg/L	0.03 mg/L	< 0.03 mg/L	2 mg/L
Clostridioides difficile PCR ribotype 126 isolate #389 (European region: West, country: France, isolate source: Animal, ribotype: 126)	2 mg/L	1 mg/L	2 mg/L	< 1 ng/mL	< 0.125 mg/L	2 mg/L	0.03 mg/L	< 0.03 mg/L	2 mg/L
Clostridioides difficile PCR ribotype 126 isolate #390 (European region: West, country: France, isolate source: Animal, ribotype: 126)	2 mg/L	1 mg/L	2 mg/L	< 1 ng/mL	0.25 mg/L	2 mg/L	0.03 mg/L	0.06 mg/L	2 mg/L
Clostridioides difficile PCR ribotype 126 isolate #391 (European region: West, country: France, isolate source: Animal, ribotype: 126)	2 mg/L	1 mg/L	2 mg/L	< 1 ng/mL	0.25 mg/L	1 mg/L	0.015 mg/L	< 0.03 mg/L	8 mg/L
Clostridioides difficile PCR ribotype 126 isolate #392 (European region: West, country: France, isolate source: Animal, ribotype: 126)	2 mg/L	1 mg/L	2 mg/L	< 1 ng/mL	0.25 mg/L	2 mg/L	0.03 mg/L	< 0.03 mg/L	64 mg/L
Clostridioides difficile PCR ribotype 126 isolate #393 (European region: West, country: France, isolate source: Animal, ribotype: 126)	4 mg/L	1 mg/L	2 mg/L	< 1 ng/mL	0.25 mg/L	2 mg/L	0.03 mg/L	< 0.03 mg/L	8 mg/L
Clostridioides difficile PCR ribotype 126 isolate #394 (European region: West, country: France, isolate source: Animal, ribotype: 126)	2 mg/L	1 mg/L	2 mg/L	< 1 ng/mL	< 0.125 mg/L	2 mg/L	0.03 mg/L	< 0.03 mg/L	4 mg/L
Clostridioides difficile PCR ribotype 126 isolate #395 (European region: West, country: Netherlands, isolate source: Animal, ribotype: 126)	4 mg/L	0.5 mg/L	2 mg/L	< 1 ng/mL	< 0.125 mg/L	2 mg/L	0.03 mg/L	0.06 mg/L	2 mg/L
Clostridioides difficile PCR ribotype 131 isolate #216 (European region: West, country: Netherlands, isolate source: Human, ribotype: 131)	4 mg/L	1 mg/L	2 mg/L	< 1 ng/mL	0.25 mg/L	1 mg/L	0.06 mg/L	0.06 mg/L	16 mg/L
Clostridioides difficile PCR ribotype 132 isolate #217 (European region: West, country: France, isolate source: Human, ribotype: 132)	2 mg/L	0.5 mg/L	1 mg/L	< 1 ng/mL	0.25 mg/L	2 mg/L	0.03 mg/L	< 0.03 mg/L	32 mg/L
Clostridioides difficile PCR ribotype 137 isolate #218 (European region: North, country: UK, isolate source: Human, ribotype: 137)	2 mg/L	1 mg/L	2 mg/L	< 1 ng/mL	< 0.125 mg/L	2 mg/L	0.03 mg/L	0.125 mg/L	16 mg/L
Clostridioides difficile PCR ribotype 140 isolate #219 (European region: North, country: UK, isolate source: Human, ribotype: 140)	2 mg/L	0.5 mg/L	2 mg/L	< 1 ng/mL	0.25 mg/L	4 mg/L	0.06 mg/L	< 0.03 mg/L	1 mg/L
Clostridioides difficile PCR ribotype 145 isolate #396 (European region: West, country: Netherlands, isolate source: Animal, ribotype: 145)	4 mg/L	0.5 mg/L	2 mg/L	< 1 ng/mL	< 0.125 mg/L	1 mg/L	0.03 mg/L	< 0.03 mg/L	1 mg/L
Clostridioides difficile PCR ribotype 153 isolate #220 (European region: North, country: UK, isolate source: Human, ribotype: 153)	2 mg/L	1 mg/L	2 mg/L	< 1 ng/mL	< 0.125 mg/L	2 mg/L	0.06 mg/L	0.06 mg/L	8 mg/L
Clostridioides difficile PCR ribotype 154 isolate #221 (European region: East, country: Romania, isolate source: Human, ribotype: 154)	4 mg/L	0.5 mg/L	2 mg/L	< 1 ng/mL	0.25 mg/L	4 mg/L	0.008 mg/L	< 0.03 mg/L	8 mg/L
Clostridioides difficile PCR ribotype 154 isolate #222 (European region: South, country: Spain, isolate source: Human, ribotype: 154)	4 mg/L	1 mg/L	2 mg/L	< 1 ng/mL	0.25 mg/L	4 mg/L	0.06 mg/L	< 0.03 mg/L	16 mg/L
Clostridioides difficile PCR ribotype 161 isolate #223 (European region: East, country: Romania, isolate source: Human, ribotype: 161)	2 mg/L	0.5 mg/L	2 mg/L	< 1 ng/mL	0.25 mg/L	4 mg/L	0.03 mg/L	0.06 mg/L	16 mg/L
Clostridioides difficile PCR ribotype 161 isolate #224 (European region: East, country: Romania, isolate source: Human, ribotype: 161)	2 mg/L	2 mg/L	2 mg/L	< 1 ng/mL	0.25 mg/L	4 mg/L	0.03 mg/L	0.06 mg/L	16 mg/L
Clostridioides difficile PCR ribotype 163 isolate #225 (European region: South, country: Spain, isolate source: Human, ribotype: 163)	2 mg/L	0.5 mg/L	2 mg/L	< 1 ng/mL	0.25 mg/L	4 mg/L	0.03 mg/L	0.06 mg/L	2 mg/L
Clostridioides difficile PCR ribotype 174 isolate #397 (European region: East, country: Romania, isolate source: Animal, ribotype: 174)	4 mg/L	1 mg/L	2 mg/L	< 1 ng/mL	< 0.125 mg/L	2 mg/L	0.06 mg/L	< 0.03 mg/L	16 mg/L
Clostridioides difficile PCR ribotype 176 isolate #227 (European region: East, country: Romania, isolate source: Human, ribotype: 176)	4 mg/L	0.5 mg/L	2 mg/L	> 32000 ng/mL	1 mg/L	8 mg/L	0.03 mg/L	< 0.03 mg/L	4 mg/L
Clostridioides difficile PCR ribotype 176 isolate #228 (European region: East, country: Slovakia, isolate source: Human, ribotype: 176)	2 mg/L	0.5 mg/L	2 mg/L	< 1 ng/mL	2 mg/L	8 mg/L	0.06 mg/L	< 0.03 mg/L	> 128 mg/L

Whole records as entered above. Order of values: minimum inhibitory concentration [1]	minimum inhibitory concentration [2]	minimum inhibitory concentration [3]	minimum inhibitory concentration [4]	minimum inhibitory concentration [5]	minimum inhibitory concentration [6]	minimum inhibitory concentration [7]	minimum inhibitory concentration [8]	minimum inhibitory concentration [9]
Clostridioides difficile PCR ribotype 126 isolate #393 (European region: West, country: France, isolate source: Animal, ribotype: 126) in the list: 4 mg/L	1 mg/L	2 mg/L	< 1 ng/mL	0.25 mg/L	2 mg/L	0.03 mg/L	< 0.03 mg/L	8 mg/L
Clostridioides difficile PCR ribotype 126 isolate #392 (European region: West, country: France, isolate source: Animal, ribotype: 126) in the list: 2 mg/L	1 mg/L	2 mg/L	< 1 ng/mL	0.25 mg/L	2 mg/L	0.03 mg/L	< 0.03 mg/L	64 mg/L
